{"source": "paper PMC11272598", "about": "“RG7774 (Vicasinabin), an orally bioavailable cannabinoid receptor 2 (CB2R) agonist, decreases retinal vascular permeability, leukocyte adhesion, and ocular inflammation in animal models” (Frontiers in Pharmacology, 2024)", "tested_on": "STZ-induced diabetes retinal vascular permeability", "experiment": "Rats with STZ-induced type 1 diabetes (fluorophotometry)", "format": "in vivo, Long Evans rats", "conditions": "STZ diabetic rats, 10 mg/kg daily oral gavage 5 weeks, 6 weeks after STZ", "method": "Twenty-six male Long Evans rats (outbred) (Charles River Laboratories, Sulzfeld, Germany) aged 7 weeks and weighing 250–270 g at the beginning of the study were housed in individually ventilated cages with a maximum density of n = 2 rats per cage with the same sex and monitored daily. Bedding for diabetic animals was changed daily. The room was kept at 20°C–24°C with 50%–60% humidity and a 12/12 h light-dark cycle. Rats received a standard diet and water ad libidum, in addition to soaked food or soft diet. For animal welfare and for dosing purposes, animals were weighed every other day. Rats were sacrificed if weight loss was greater than 20% of the original weight, or more than 20% of body gain within 1 week.\nAnimals were fasted overnight and injected the following morning with IP 60 mg/kg (60 mg/mL at 1 mL/kg) STZ as reported previously ([Kim et al., 2007]; [Furman, 2015]) in 0.05 M sodium citrate buffer (pH 4.5). […]\nTo quantify fluorotron measurements, raw data were generated, exported as .txt files, and plotted using Microsoft Excel. The average AUC was calculated for 5 steps in the region of the scans corresponding to the vitreous peak. […] All data are expressed as mean ± SEM ng/mL ratios of vitreous:plasma fluorescein. Fluorophotometry data were analyzed using 2-way ANOVA followed by Newman–Keuls multiple comparisons test. […]", "data": [{"smiles": "Cn1nnnc1Cn1nnc2c(N3CC[C@H](O)C3)nc(C(C)(C)C)nc21", "note": "[RG7774, (S)-1-(5-tert-butyl-3-[(1-methyl-1H-tetrazol-5-yl)methyl]-3H-[1,2,3]triazolo[4,5-d]pyrimidin-7-yl)pyrrolidin-3-ol]", "values": [{"measurement": "body weight", "value": 359.3, "unit": "g"}]}]}
